According to PubChem BioAssay AID504834 (National Center for Advancing Translational Sciences (NCATS), 2011):
About 22,000 (6.9%) of roughly 320,000 compounds were called active. Inconclusive results, whose numbers are uncertain, are shown with a selection of clear calls. Calls follow the shape of the dose curve; as a rule, active = well fitted inhibition curve with a large enough effect; inconclusive = small, poorly fitted or top-dose-only effect, or another doubt; inactive = no such curve, though single readings can be large or run the other way. Potencies of inconclusive entries are doubtful fits and often do not repeat.

Assay: Primary qHTS for delayed death inhibitors of the malarial parasite plastid, 96 hour incubation
Conditions: P. falciparum luciferase reporter growth; series mostly up to 28.7 µM
Outline: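 Erythrocytes infected with luciferase-expressing P. falciparum were dispensed at 2% hematocrit and 0.05% parasitemia (final), then incubated with compounds 96 hours at 37 C in 5% CO2. Luminescence after detection reagent addition reported growth.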
Potency is read from the fitted curve at half-maximal effect.

With C=CCn1c(SCC(=O)N2CCN(CCO)CC2)nc2sc3c(c2c1=O)CCC3 as the compound, how does the Potency read?
The Potency was inconclusive: 9.28 µM [inhibitor, partial curve].

With NS(=O)(=O)c1ccc(CNC(=O)c2cccc(S(=O)(=O)N3CCc4ccccc43)c2)cc1 as the compound, how does the Potency read?
Its Potency is “inactive”.

With COc1ccccc1C1CCN(Cc2cccc3ccccc23)CC1 as the compound, how does the Potency read?
Its Potency is inconclusive: 9.28 µM [inhibitor, single point].

Which Potency does the source give for CC(C)c1ccc(NC(=O)c2cc(Br)ccc2Br)cc1 here?
Its Potency is inconclusive: 18.5 µM [inhibitor, single point].

For COc1cc(C(=O)N(Cc2ccccc2)c2cccc(C)c2)ccc1OC(F)F, which Potency is on record?
Its Potency is active: 13.1 µM.

With CCC(=O)c1ccc(OCC(O)CN2CCN(S(=O)(=O)c3ccc(NC(C)=O)cc3)CC2)cc1 (stereo not drawn) as the compound, how does the Potency read?
Its Potency is inconclusive: 18.5 µM [inhibitor, single point].

Which Potency does the source give for COc1ccc(C2CCCN2C(=O)Nc2ccccc2)cc1OC (stereo not drawn) here?
The Potency was inconclusive: 18.5 µM [inhibitor, single point].

Which Potency does the source give for Cc1ccc(OCCCCn2c(CO)nc3ccccc32)cc1 here?
Its Potency is inconclusive: 18.5 µM [inhibitor, single point].

Which Potency does the source give for O=C1N/C(=N/N=C/c2ccc(O)cc2)SC1Cc1ccccc1 (stereo not drawn) here?
The Potency was inconclusive: 2.62 µM [inhibitor, full curve, poor fit].

Which Potency does the source give for Cc1cc(C)nc(SCC(=O)NC2=NN=C(c3ccc(Br)cc3)CS2)n1 here?
Its Potency is inconclusive: 14.7 µM [inhibitor, single point].

With Cc1ccn2cc(CNC(=O)c3ccc(Br)o3)nc2c1 as the compound, how does the Potency read?
Its Potency is inconclusive: 18.5 µM [inhibitor, single point].

For Clc1ccc(/C=N/Nc2nnc(-c3ncc[nH]3)c3ccccc23)cc1, which Potency is on record?
Its Potency is “inactive”.

Which Potency does the source give for CCc1ccc(C(=O)NC(=S)NCc2cccnc2)cc1 here?
Its Potency is “inactive”.

With CC1(C)CC(=O)C=C(c2cccc(Cl)c2O)C1 as the compound, how does the Potency read?
The Potency was inconclusive: 8.28 µM [inhibitor, single point].

For O=C(c1cccc(S(=O)(=O)N2CCN(c3ccccc3)CC2)c1)N1CC=C(c2ccccc2)CC1, which Potency is on record?
The Potency was inconclusive: 13.1 µM [inhibitor, partial curve, poor fit].

Which Potency does the source give for O=C1CCCCN1CCC(=O)N1CCCC(Nc2ccccc2)C1 (stereo not drawn) here?
Its Potency is inconclusive: 20.8 µM [inhibitor, single point].

Which Potency does the source give for CCOc1nc(OCC)nc(-n2cc(-c3ccccc3)nn2)n1 here?
The Potency was inconclusive: 3.7 µM [inhibitor, single point].

Which Potency does the source give for Cc1cc(C)c(C)c(S(=O)(=O)N2CCN(c3ncnc4ccccc34)CC2)c1C here?
The Potency was inconclusive: 18.5 µM [inhibitor, single point].

With COc1ccc(C2/C=C\CN(C(=O)Nc3ccccc3-c3ccccc3)CC(=O)N2Cc2ccc(F)cc2)cc1 (stereo not drawn) as the compound, how does the Potency read?
The Potency was active: 13.1 µM.

With CC12CC(c3ccccc3O1)C(C(=O)N1CCOCC1)C(=O)N2 (stereo not drawn) as the compound, how does the Potency read?
The Potency was inconclusive: 18.5 µM [inhibitor, single point].

For CCc1ccccc1NC(=O)c1cc(S(=O)(=O)N2CCCC2)c[nH]1, which Potency is on record?
Its Potency is inconclusive: 18.5 µM [inhibitor, single point].

With O=C(CSc1nc2ccccc2s1)Nc1cc(S(=O)(=O)N2CCOCC2)ccc1O as the compound, how does the Potency read?
Its Potency is inconclusive: 13.1 µM [inhibitor, single point].

For CCN(CC)CCn1c(=N)n(CC(O)c2ccc(OC)c(OC)c2)c2ccccc21 (stereo not drawn), which Potency is on record?
The Potency was “inactive”.

Which Potency does the source give for O=C(O)c1cccc2c1/C(=N/Nc1ccc([N+](=O)[O-])cc1[N+](=O)[O-])c1ccccc1-2 here?
The Potency was “inactive”.

For COc1ccccc1CCNC(=O)C(=O)NCC1OCCCN1S(=O)(=O)c1ccc(F)cc1C (stereo not drawn), which Potency is on record?
The Potency was inconclusive: 10.4 µM [inhibitor, partial curve].

With Cc1ccc(-n2nc3c(=O)n(CC(=O)NC4CCCCCC4)nc(C)c3c2C)cc1 as the compound, how does the Potency read?
The Potency was active: 13.1 µM.

For COc1ccc(C2C3C=CCC(c4cccc(-c5ccc(C)cc5)c4)C3C(=O)N2Cc2ccccc2)cc1Cl (stereo not drawn), which Potency is on record?
The Potency was inconclusive: 2.62 µM [inhibitor, single point].

With Cn1c(SCc2ccc(Cl)cc2Cl)nc(C(F)(F)F)cc1=O as the compound, how does the Potency read?
Its Potency is “inactive”.

For CCN1C(=O)/C(=C\N2CCCCCC2)SC1=S, which Potency is on record?
The Potency was active: 11.7 µM.

With O=C(CCSc1ccccc1)Nc1nc2c(s1)COc1ccccc1-2 as the compound, how does the Potency read?
The Potency was “inactive”.

With COCCN(C(=S)Nc1ccc(OC)c(Cl)c1)C1CCN(C(C)C)CC1 as the compound, how does the Potency read?
The Potency was inconclusive: 0.294 µM [inhibitor, partial curve, poor fit].

For Cc1cc(=O)n(-c2ccccc2)n1-c1ccccc1, which Potency is on record?
Its Potency is “inactive”.

With COc1ccc(-c2csc(NC(=O)CN3C(=O)C4CC=CCC4C3=O)n2)cc1 (stereo not drawn) as the compound, how does the Potency read?
The Potency was “inactive”.

For Cc1ccc(C2(C)NC(=O)N(CC(=O)Nc3cc(S(=O)(=O)N4CCCCC4)ccc3OC(C)C)C2=O)cc1 (stereo not drawn), which Potency is on record?
Its Potency is inconclusive: 9.28 µM [inhibitor, partial curve, poor fit].

With CC(=O)N(Cc1ccco1)C1(C(=O)NC2CCCC2)CCCCC1 as the compound, how does the Potency read?
Its Potency is inconclusive: 13.1 µM [inhibitor, single point].

Which Potency does the source give for Cc1c(C(=O)NCc2ccc3c(c2)OCO3)oc2ccc(S(=O)(=O)N3CCCCCC3)cc12 here?
Its Potency is inconclusive: 10.4 µM [inhibitor, partial curve, poor fit].

For O=C(Nc1ccc(CN2CCCCC2)cc1)c1c(F)c(F)c(F)c(F)c1F, which Potency is on record?
The Potency was inconclusive: 18.5 µM [inhibitor, single point].

With Cc1cc(NC(=O)NN2CCOCC2)nn1-c1c(Cl)cc(Cl)cc1Cl as the compound, how does the Potency read?
The Potency was inconclusive: 5.22 µM [inhibitor, partial curve, poor fit].

With Cc1ccc(NC(=O)COC(=O)c2cccc(OC(F)F)c2)cc1S(=O)(=O)N1CCCCC1 as the compound, how does the Potency read?
Its Potency is inconclusive: 9.28 µM [inhibitor, single point].

Which Potency does the source give for COc1ccccc1C(=O)NC(=S)NNC(=O)c1sc2ccccc2c1Cl here?
The Potency was inconclusive: 16.5 µM [inhibitor, single point].

For Cc1cc2oc(=O)cc(CN3CCN(Cc4ccc5c(c4)OCO5)CC3)c2cc1C, which Potency is on record?
The Potency was inconclusive: 10.4 µM [inhibitor, single point].

For Cc1oc2ccc(NS(=O)(=O)c3ccccc3)cc2c1C(=O)Nc1ccccc1, which Potency is on record?
Its Potency is inconclusive: 11.7 µM [inhibitor, single point].

Which Potency does the source give for CCCc1nc(SCC(=O)c2ccc(F)cc2)c2ccccc2n1 here?
Its Potency is inconclusive: 4.65 µM [inhibitor, partial curve, poor fit].

For O=C(Nc1ccncc1)Nc1cccc(Cl)c1Cl, which Potency is on record?
The Potency was “inactive”.

With COc1ccc(NC2CCCN(C(=O)c3ccc(OC)o3)C2)cc1 (stereo not drawn) as the compound, how does the Potency read?
Its Potency is inconclusive: 14.7 µM [inhibitor, single point].

With CC(=O)Nc1ccc(/C=N/NS(=O)(=O)c2cc(C)ccc2C)cc1 as the compound, how does the Potency read?
The Potency was inconclusive: 13.1 µM [inhibitor, single point].

With CSc1nnc(CSc2cc(C)nc(N(C)C)n2)o1 as the compound, how does the Potency read?
The Potency was “inactive”.

For Clc1ccc2nnnc(-c3ccccc3)c2c1, which Potency is on record?
Its Potency is inconclusive: 10.4 µM [inhibitor, single point].

Which Potency does the source give for O=C1NC(=O)/C(=C\c2ccc(Oc3ccc([N+](=O)[O-])cn3)cc2)S1 here?
Its Potency is “inactive”.

For Cc1cc(C)c(S(=O)(=O)N(CC(=O)N2CCOCC2)C2CCCCC2)c(C)c1, which Potency is on record?
Its Potency is inconclusive: 0.37 µM [inhibitor, full curve, poor fit].

Which Potency does the source give for COCCOC(=O)c1c(C)n(C)c2ccc(OC(=O)c3c(OC)cccc3OC)cc12 here?
Its Potency is inconclusive: 1.47 µM [inhibitor, full curve].

Which Potency does the source give for COC(=O)c1ccc2nc(C)cc(Nc3ccc(N(C)C)cc3)c2c1 here?
Its Potency is inconclusive: 18.5 µM [inhibitor, single point].

For CC1CCCC(NC(=O)CCCn2ncn3c(cc4occc43)c2=O)C1C (stereo not drawn), which Potency is on record?
The Potency was inconclusive: 4.65 µM [inhibitor, partial curve].

With COc1ccc(-c2cccc(C3CC=CC4C3C(=O)N(Cc3ccccc3)C4c3ccc(C(F)(F)F)cc3)c2)cc1 (stereo not drawn) as the compound, how does the Potency read?
Its Potency is active: 7.38 µM.

With c1ccc(Nc2nc3ccccc3[nH]2)nc1 as the compound, how does the Potency read?
Its Potency is inconclusive: 10.4 µM [inhibitor, partial curve].

For CN(CCC#N)Cc1cc(=O)oc2ccc3ccccc3c12, which Potency is on record?
The Potency was inconclusive: 0.465 µM [inhibitor, full curve, poor fit].

For O=C(CCc1ccccc1)Nc1ccnn1C1CCN(C/C=C/c2ccccc2)CC1, which Potency is on record?
Its Potency is “inactive”.

Which Potency does the source give for Nc1c(C(=O)c2ccc(F)cc2)oc2ccccc12 here?
Its Potency is “inactive”.

With CCn1nc(C)cc1C(=O)N1CCCC(C(=O)c2ccc3ccccc3c2)C1 (stereo not drawn) as the compound, how does the Potency read?
Its Potency is “inactive”.

Which Potency does the source give for COc1ccccc1CNC(=O)CN1C(=O)NC(C)(c2ccc(C(C)(C)C)cc2)C1=O (stereo not drawn) here?
Its Potency is inconclusive: 14.7 µM [inhibitor, partial curve, poor fit].

Which Potency does the source give for O=C(C1CC1)N1CCCC(c2ccc(Cl)cc2)=N1 here?
The Potency was “inactive”.

With Cc1nn(-c2ccccc2)c2c1P(=O)(O)/C(=C1\N(C)c3ccccc3C1(C)C)C=N2 as the compound, how does the Potency read?
Its Potency is active: 8.28 µM.

For COCc1cc(C)nc(Nc2cc(C)ccc2C)c1C#N, which Potency is on record?
The Potency was inconclusive: 18.5 µM [inhibitor, single point].

With C=CCOc1ccc(CN(C)CC(O)COc2cccc3ccccc23)cc1 (stereo not drawn) as the compound, how does the Potency read?
Its Potency is inconclusive: 14.7 µM [inhibitor, partial curve].

With CCOC(=O)/C(C#N)=N/Nc1ccc(S(=O)(=O)N2CCc3ccccc32)cc1 as the compound, how does the Potency read?
Its Potency is active: 11.7 µM.

With CC(NCC(=O)Nc1cc(S(=O)(=O)N2CCCCCC2)ccc1Cl)c1ccccc1 (stereo not drawn) as the compound, how does the Potency read?
The Potency was inconclusive: 10.4 µM [inhibitor, single point].

With O=C(Nc1cccc(-c2csc(Nc3ccc(Cl)cc3)n2)c1)c1cc([N+](=O)[O-])cc(C(F)(F)F)c1 as the compound, how does the Potency read?
Its Potency is active: 2.08 µM.

For CC1CCN(c2c(NCC3CCC(C(=O)NCCc4ccccc4)CC3)c(=O)c2=O)CC1 (stereo not drawn), which Potency is on record?
Its Potency is inconclusive: 0.738 µM [inhibitor, partial curve, poor fit].
